Read-outs that look alike come from different tables or passages of the source. No constants are given. Whether binding was seen depends on the method and setting. In cells and extracts the contact can be indirect. These calls come from enrichment with a bait or labelling near it, and not all partners need be listed. No binding means not detected with the bait.
Legend:
[1] = molecular target: BRD8 (mouse (in mouse ESCs and EpiSCs)) (UniProt Q8R3B7); test: affinity purification with mass spectrometry
[2] = molecular target: BRD8 (mouse (in mouse ESCs and EpiSCs)) (UniProt Q8R3B7); test: affinity purification with mass spectrometry; remark: listed apart in the source

By UniProt entry, the sequences of proteins in these tests, tags left out.
UniProt Q8R3B7: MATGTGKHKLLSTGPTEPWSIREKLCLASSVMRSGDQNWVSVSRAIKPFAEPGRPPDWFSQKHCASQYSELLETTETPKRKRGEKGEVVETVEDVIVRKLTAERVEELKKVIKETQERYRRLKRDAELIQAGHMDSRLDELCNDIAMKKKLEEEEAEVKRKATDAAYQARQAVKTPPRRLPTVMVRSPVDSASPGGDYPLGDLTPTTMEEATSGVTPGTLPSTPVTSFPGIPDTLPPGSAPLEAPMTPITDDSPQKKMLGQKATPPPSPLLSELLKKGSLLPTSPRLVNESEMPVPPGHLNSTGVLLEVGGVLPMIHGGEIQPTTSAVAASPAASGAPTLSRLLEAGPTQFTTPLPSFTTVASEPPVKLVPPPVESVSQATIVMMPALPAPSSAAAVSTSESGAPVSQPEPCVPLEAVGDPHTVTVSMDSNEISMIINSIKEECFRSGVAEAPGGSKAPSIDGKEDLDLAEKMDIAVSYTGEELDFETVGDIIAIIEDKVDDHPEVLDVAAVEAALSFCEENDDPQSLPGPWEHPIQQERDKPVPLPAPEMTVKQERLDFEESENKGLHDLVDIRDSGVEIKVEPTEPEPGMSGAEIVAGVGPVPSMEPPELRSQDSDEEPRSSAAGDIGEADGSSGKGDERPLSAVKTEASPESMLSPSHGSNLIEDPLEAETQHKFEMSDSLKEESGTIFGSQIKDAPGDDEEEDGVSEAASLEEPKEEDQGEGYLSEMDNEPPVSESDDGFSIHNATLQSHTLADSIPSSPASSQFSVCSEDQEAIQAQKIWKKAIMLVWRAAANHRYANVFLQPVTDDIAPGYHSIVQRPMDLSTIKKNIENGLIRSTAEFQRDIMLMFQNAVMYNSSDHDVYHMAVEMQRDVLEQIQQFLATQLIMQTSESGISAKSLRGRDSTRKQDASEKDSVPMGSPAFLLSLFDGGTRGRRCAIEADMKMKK
UniProt P60762: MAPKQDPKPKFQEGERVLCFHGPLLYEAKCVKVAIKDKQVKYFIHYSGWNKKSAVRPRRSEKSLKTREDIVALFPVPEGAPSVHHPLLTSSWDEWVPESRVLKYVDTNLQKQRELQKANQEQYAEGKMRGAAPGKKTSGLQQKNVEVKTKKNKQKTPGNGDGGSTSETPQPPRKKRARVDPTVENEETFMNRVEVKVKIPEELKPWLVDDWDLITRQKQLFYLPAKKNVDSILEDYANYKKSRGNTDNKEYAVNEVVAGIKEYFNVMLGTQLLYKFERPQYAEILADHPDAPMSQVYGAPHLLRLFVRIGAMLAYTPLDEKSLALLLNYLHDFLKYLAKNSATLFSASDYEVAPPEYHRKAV
UniProt Q62520: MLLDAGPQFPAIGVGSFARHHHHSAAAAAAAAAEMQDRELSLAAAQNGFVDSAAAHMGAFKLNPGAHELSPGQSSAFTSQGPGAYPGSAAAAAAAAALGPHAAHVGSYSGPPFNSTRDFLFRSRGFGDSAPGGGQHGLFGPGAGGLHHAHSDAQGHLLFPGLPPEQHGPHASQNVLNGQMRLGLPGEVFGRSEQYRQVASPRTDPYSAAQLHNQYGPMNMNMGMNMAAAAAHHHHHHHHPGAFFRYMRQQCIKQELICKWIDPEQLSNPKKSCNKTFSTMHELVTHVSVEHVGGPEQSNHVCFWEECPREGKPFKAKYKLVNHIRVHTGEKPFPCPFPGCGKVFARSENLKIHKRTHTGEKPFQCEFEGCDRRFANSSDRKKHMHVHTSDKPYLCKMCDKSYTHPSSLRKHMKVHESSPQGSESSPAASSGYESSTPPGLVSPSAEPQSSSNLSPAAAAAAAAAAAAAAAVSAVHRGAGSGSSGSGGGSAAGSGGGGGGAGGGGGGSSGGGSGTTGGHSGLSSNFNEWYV
UniProt Q9R0Q4: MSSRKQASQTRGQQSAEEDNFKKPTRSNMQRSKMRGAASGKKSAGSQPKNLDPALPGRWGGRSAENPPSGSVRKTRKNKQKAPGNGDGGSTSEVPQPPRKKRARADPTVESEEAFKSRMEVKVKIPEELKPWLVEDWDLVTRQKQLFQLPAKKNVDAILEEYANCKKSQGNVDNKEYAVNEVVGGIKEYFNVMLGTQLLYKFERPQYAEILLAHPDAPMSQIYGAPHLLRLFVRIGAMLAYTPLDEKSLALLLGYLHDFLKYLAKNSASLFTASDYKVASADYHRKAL

Substance: MORF4L1 (from UniProt P60762 1-362)
- binding [1]: binds
- binding [2]: binds

Substance: ZIC2 (from UniProt Q62520 1-530)
- binding [1]: no binding
- binding [2]: no binding

Substance: MORF4L2 (from UniProt Q9R0Q4 1-288)
- binding [1]: binds
- binding [2]: binds

From doi:10.1101/2024.03.20.585857
